# Results deposited as PubChem BioAssay AID1224827 (NIAID, 2016)
# Purpose: 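Identify regulators of the macrophage TNF-alpha response to bacterial LPS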 (follow-up of hits)
# Cell system: RAW264.7 G9 mouse macrophage reporter clone
# Reagents: single siRNA against mouse genes, 100 nM siRNA
# Duration: siRNA for 2 days, then LPS about 16 h
# Treatment: bacterial lipopolysaccharide (LPS), 10 ng/ml, cells fixed after overnight (about 16 h) stimulation
# Measurement: 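Imaged nuclear TNF reporter intensity, background removed, scaled per plate and to non-targeting control wells, as z-scores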
# Direction: TNF reporter z-score, mean and TNF reporter z-score: higher = stronger Tnf promoter reporter signal; gene median z, three same-vendor siRNAs: higher = stronger Tnf reporter signal for the gene
# Active means: 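An siRNA is called active when its mean z-score over replicates is at least +2 or at most -2; control wells get no call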
# The whole screen tested about 3,800 reagents; below is an unselected part. Of all reagents, about 2,200 (57%) were called active. 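Active means a strong reporter change in either direction; calls are per siRNA, not per gene; qiagen siRNAs gave weaker effects.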 The numbers tell different reagents against one gene apart.
Target gene,siRNA no.,"TNF reporter z-score, mean","gene median z, three same-vendor siRNAs","TNF reporter z-score, repeat 1","TNF reporter z-score, repeat 2",call
Adam10,1,4.72,0.225,3.76,5.67,active
Adam10,2,0.225,0.225,-2.13,2.58,inactive
Adam10,3,-4.13,0.225,-4.73,-3.52,active
Adam10,4,-0.221,-0.894,-0.0183,-0.424,inactive
Adam10,5,-0.88,-0.894,-0.395,-1.36,inactive
Adam10,6,-3.35,-0.894,-3.81,-2.9,active
Fam221b,1,-3.67,-4.05,-3.97,-3.38,active
Fam221b,2,-3.84,-4.05,-4.5,-3.18,active
Fam221b,3,-4.46,-4.05,-4.13,-4.79,active
Fam221b,4,2.53,0.592,4.85,0.21,active
Fam221b,5,2.15,0.592,3.32,0.974,active
Fam221b,6,-1.93,0.592,-2.81,-1.05,inactive
Nhlrc2,1,-4.46,-4.74,-4.57,-4.34,active
Nhlrc2,2,-5.3,-4.74,-4.38,-6.21,active
Nhlrc2,3,-5.33,-4.74,-4.91,-5.75,active
Nhlrc2,4,1.54,-0.0825,3.13,-0.0498,inactive
Nhlrc2,5,1.14,-0.0825,2.4,-0.115,inactive
Nhlrc2,6,-1.6,-0.0825,-1.53,-1.67,inactive
Cnpy3,1,0.208,-2.5,2.68,-2.26,inactive
Cnpy3,2,-1.87,-2.5,-2.74,-0.999,inactive
Cnpy3,3,-3.24,-2.5,-3.41,-3.08,active
Cnpy3,4,3.74,0.125,5.94,1.53,active
Cnpy3,5,0.462,0.125,2.21,-1.28,inactive
Cnpy3,6,-2.49,0.125,-1.81,-3.18,active
Cse1l,1,6.63,-3.05,4.54,8.72,active
Cse1l,2,-3.11,-3.05,-2.14,-4.07,active
Cse1l,3,-4.04,-3.05,-3.96,-4.13,active
Cse1l,4,-1.24,-3.28,0.278,-2.75,inactive
Cse1l,5,-2.46,-3.28,-1.12,-3.8,active
Cse1l,6,-4.24,-3.28,-4.02,-4.47,active
Large2,1,-2.04,-3.33,-3.51,-0.57,active
Large2,2,-2.94,-3.33,-3.14,-2.73,active
Large2,3,-4.82,-3.33,-5.56,-4.08,active
Large2,4,1.31,0.388,1.48,1.15,inactive
Large2,5,1,0.388,2.37,-0.372,inactive
Large2,6,-2.2,0.388,-3.01,-1.38,active
Atp1b1,1,-2.05,-2.99,-2.79,-1.3,active
Atp1b1,2,-2.1,-2.99,-3.19,-1,active
Atp1b1,3,-4.81,-2.99,-5.32,-4.3,active
Atp1b1,4,0.661,0.0134,0.937,0.384,inactive
Atp1b1,5,0.193,0.0134,0.744,-0.357,inactive
Atp1b1,6,-1.81,0.0134,-1.38,-2.25,inactive
Or5ar1,1,-2.69,-4.09,-1.81,-3.56,active
Or5ar1,2,-4.34,-4.09,-5.48,-3.2,active
Or5ar1,3,-4.9,-4.09,-5.18,-4.61,active
Or5ar1,4,6.34,-1.45,12,0.691,active
Or5ar1,5,-1.64,-1.45,-2.28,-0.99,inactive
Or5ar1,6,-2.01,-1.45,-1.9,-2.11,active

4 entries from above, showing only “gene median z, three same-vendor siRNAs”.
Cnpy3 #6: 0.125
Cse1l #1: -3.05
Cse1l #2: -3.05
Cse1l #3: -3.05

More reagents:
Target gene,siRNA no.,"TNF reporter z-score, mean","gene median z, three same-vendor siRNAs","TNF reporter z-score, repeat 1","TNF reporter z-score, repeat 2",call
Arrdc4,1,3.52,-2.92,3.49,3.55,active
Arrdc4,2,-2.92,-2.92,-3.07,-2.76,active
Arrdc4,3,-4.01,-2.92,-4.01,-4.01,active
Arrdc4,4,1.18,-0.384,1.85,0.518,inactive
Arrdc4,5,-0.77,-0.384,-0.565,-0.975,inactive
Arrdc4,6,-1.02,-0.384,-0.203,-1.83,inactive
Apool,1,1.09,-1.53,-0.563,2.74,inactive
Apool,2,-1.53,-1.53,-0.625,-2.44,inactive
Apool,3,-5.56,-1.53,-4.96,-6.15,active
Apool,4,2.66,-0.996,5.09,0.228,active
Apool,5,-0.996,-0.996,-0.758,-1.23,inactive
Apool,6,-2.62,-0.996,-1.95,-3.3,active
Cubn,1,-2.19,-2.56,-2.53,-1.84,active
Cubn,2,-2.42,-2.56,-2.59,-2.25,active
Cubn,3,-3.06,-2.56,-2.83,-3.3,active
Or10q12,1,2.49,-2.66,1.99,2.99,active
Or10q12,2,-2.71,-2.66,-2.46,-2.96,active
Or10q12,3,-2.92,-2.66,-2.98,-2.86,active
Or10q12,4,-0.62,-1.67,-0.562,-0.678,inactive
Or10q12,5,-1.67,-1.67,-2.01,-1.33,inactive
Or10q12,6,-3.96,-1.67,-4.11,-3.81,active
Cpt1b,1,-1.77,-3.94,-2.79,-0.738,inactive
Cpt1b,2,-4.36,-3.94,-5.33,-3.4,active
Cpt1b,3,-5.31,-3.94,-6.13,-4.48,active
Cpt1b,4,1.66,1.66,2.68,0.646,inactive
Cpt1b,5,1.74,1.66,4.2,-0.713,inactive
Cpt1b,6,1.46,1.66,3.41,-0.504,inactive
